Assay results as given in the supplement of paper PMC8728848.
The list shows a part of the results.

Tests used:
Experiment in all cases: glycan array binding signal (z-score within array); higher = stronger binding
Conditions in all cases: glycan notation: IUPAC condensed, linker removed
[1] = molecular target: Man(a1-2)Man(a1-3)[Man(a1-2)Man(a1-6)]Man
Procedure, shortened: (§1)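 Arrays were curated from the Consortium for Functional Glycomics database, 3228 in total, and kept only where the protein sequence was available. Binding is expressed as a within-array Z-score. This score was averaged across arrays of the same protein sequence at different concentrations or buffers and across linkers, and negative values can be read as non-binding.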

[2] = molecular target: Man(a1-2)Man(a1-3)[Man(a1-2)Man(a1-6)]Man(a1-6)[Man(a1-2)Man(a1-2)Man(a1-3)]Man
Procedure, shortened: as §1

[3] = molecular target: Man(a1-2)Man(a1-3)[Man(a1-2)Man(a1-6)]Man(a1-6)[Man(a1-2)Man(a1-2)Man(a1-3)]Man(b1-4)GlcNAc(b1-4)GlcNAc
Procedure, shortened: as §1

[4] = molecular target: Man(a1-2)Man(a1-3)[Man(a1-6)]Man(a1-6)[Man(a1-2)Man(a1-3)]Man(b1-4)GlcNAc(b1-4)GlcNAc
Procedure, shortened: as §1

[5] = molecular target: Man(a1-2)Man(a1-6)[Man(a1-3)]Man(a1-6)[Man(a1-2)Man(a1-2)Man(a1-3)]Man
Procedure, shortened: as §1

[6] = molecular target: Man(a1-2)Man(a1-6)[Man(a1-3)]Man(a1-6)[Man(a1-2)Man(a1-2)Man(a1-3)]Man(b1-4)GlcNAc(b1-4)GlcNAc
Procedure, shortened: as §1

Man(a1-3)[Man(a1-6)]Man = molecular target: Man(a1-3)[Man(a1-6)]Man
Procedure, shortened: as §1

[7] = molecular target: Man(a1-3)[Man(a1-6)]Man(a1-6)[Man(a1-2)Man(a1-3)]Man(b1-4)GlcNAc(b1-4)GlcNAc
Procedure, shortened: as §1

[8] = molecular target: Man(a1-3)[Man(a1-6)]Man(a1-6)[Man(a1-3)]Man
Procedure, shortened: as §1

[9] = molecular target: Man(a1-3)[Man(a1-6)]Man(a1-6)[Man(a1-3)]Man(b1-4)GlcNAc(b1-4)GlcNAc
Procedure, shortened: as §1

[10] = molecular target: Man(a1-3)[Man(a1-6)]Man(b1-4)GlcNAc(b1-4)GlcNAc
Procedure, shortened: as §1

[11] = molecular target: Man(a1-3)[Man(a1-6)]Man(b1-4)GlcNAc(b1-4)[Fuc(a1-6)]GlcNAc
Procedure, shortened: as §1

Man(a1-6)Man = molecular target: Man(a1-6)Man
Procedure, shortened: as §1

Man(b1-4)GlcNAc = molecular target: Man(b1-4)GlcNAc
Procedure, shortened: as §1

MurNAc(b1-4)GlcNAc = molecular target: MurNAc(b1-4)GlcNAc
Procedure, shortened: as §1

Neu5Ac(a2-3)Gal = molecular target: Neu5Ac(a2-3)Gal
Procedure, shortened: as §1

[12] = molecular target: Neu5Ac(a2-3)Gal(b1-3)GalNAc
Procedure, shortened: as §1

[13] = molecular target: Neu5Ac(a2-3)Gal(b1-3)GalNAc(b1-3)Gal(a1-4)Gal(b1-4)Glc
Procedure, shortened: as §1

[14] = molecular target: Neu5Ac(a2-3)Gal(b1-3)GalNAc(b1-4)Gal(b1-4)Glc
Procedure, shortened: as §1

[15] = molecular target: Neu5Ac(a2-3)Gal(b1-3)GalNAc(b1-4)[Neu5Ac(a2-3)]Gal(b1-4)Glc
Procedure, shortened: as §1

[16] = molecular target: Neu5Ac(a2-3)Gal(b1-3)GalNAc(b1-4)[Neu5Ac(a2-8)Neu5Ac(a2-3)]Gal(b1-4)Glc
Procedure, shortened: as §1

[17] = molecular target: Neu5Ac(a2-3)Gal(b1-3)GalNAc6S
Procedure, shortened: as §1

[18] = molecular target: Neu5Ac(a2-3)Gal(b1-3)GlcNAc
Procedure, shortened: as §1

[19] = molecular target: Neu5Ac(a2-3)Gal(b1-3)GlcNAc(b1-2)Man
Procedure, shortened: as §1

[20] = molecular target: Neu5Ac(a2-3)Gal(b1-3)GlcNAc(b1-2)Man(a1-3)[GlcNAc(b1-4)][Neu5Ac(a2-3)Gal(b1-3)GlcNAc(b1-2)Man(a1-6)]Man(b1-4)GlcNAc(b1-4)GlcNAc
Procedure, shortened: as §1

[21] = molecular target: Neu5Ac(a2-3)Gal(b1-3)GlcNAc(b1-2)Man(a1-3)[Neu5Ac(a2-3)Gal(b1-3)GlcNAc(b1-2)Man(a1-6)]Man(b1-4)GlcNAc(b1-4)GlcNAc
Procedure, shortened: as §1

[22] = molecular target: Neu5Ac(a2-3)Gal(b1-3)GlcNAc(b1-2)[Neu5Ac(a2-3)Gal(b1-3)GlcNAc(b1-4)]Man(a1-6)[Neu5Ac(a2-3)Gal(b1-3)GlcNAc(b1-2)Man(a1-3)]Man(b1-4)GlcNAc(b1-4)GlcNAc
Procedure, shortened: as §1

[23] = molecular target: Neu5Ac(a2-3)Gal(b1-3)GlcNAc(b1-3)Gal(b1-3)GlcNAc
Procedure, shortened: as §1

[24] = molecular target: Neu5Ac(a2-3)Gal(b1-3)GlcNAc(b1-3)Gal(b1-4)GlcNAc
Procedure, shortened: as §1

[25] = molecular target: Neu5Ac(a2-3)Gal(b1-3)GlcNAc(b1-3)GalNAc
Procedure, shortened: as §1

B1: CcfD (Bacteroides fragilis), Q5L9G4 (protein)
chain: MKKQNSIYTLLIALLCFVSSCDYLGVSDQLAGGLQNTEQVFDNVSYTKRWYANVFAGIPDYSGINSVNVGAFKNPWTGMCDELVVGYGNSSKYNNSDRNAANMGFHRYGDCYKYIRQANIFLQKAHPIMTTGTQGDQLLEDELTQMKANVRFMRAFYHYLLFEQYGPIILVKDKIYNATEDQDVPRNTVDEVIEYIDSELTAVASELTQEPIFEDKDYRAWPTKGVALAVRAKLWLYAASPLLNGGYREALSVTNPDGTRLFPDYDAGKWEKALAACKDFIDYAEAGRYELYKEYKDDNGAVIDPDKSVYNLFQKYTHEIIWATANNDWGGMNGDAFDRRIAPRCEKNGLGSTGVTQELVDAFYMKDGFPVSATAYLPQSTLYQEEGYGTYKDQNDNFSKKYTNVTVSNRYLNREPRFYNTVFFNGRQWPVSCNQVLFYNGGNSGVQEGQATLTGYMLFKRFNRSVSLTNPGVASQFRPSIIFRLADFYLMYAEAANEVNPNDARVLKYLNLVRERAGLPDIETLNPAIRGNQELQRAAIQRERQIELATEGQRYFDVRRWMIADKNGEGRQNGYVHGMNVRGESNDKEDFNRIVEASQIVFNRKMYLYPMPDSEMRKTKNLVQNPGW
In the case of B1, the “glycan array binding signal (z-score)” value [1] is reported as -0.404, the “glycan array binding signal (z-score)” value [2] is reported as 2.93 and the “glycan array binding signal (z-score)” value [3] is reported as -0.102. For the same binder, the “glycan array binding signal (z-score)” value [4] was -0.496, the “glycan array binding signal (z-score)” value [5] was -0.778 and the “glycan array binding signal (z-score)” value [6] was -0.667. The “glycan array binding signal (z-score)” value (Man(a1-3)[Man(a1-6)]Man) was -0.253, the “glycan array binding signal (z-score)” value [7] was 0.614 and the “glycan array binding signal (z-score)” value [8] was -0.837. For the same binder, the “glycan array binding signal (z-score)” value [9] was -0.181, the “glycan array binding signal (z-score)” value [10] was -0.312 and the “glycan array binding signal (z-score)” value [11] was 0.745. The “glycan array binding signal (z-score)” value (Man(a1-6)Man) was -1.12, the “glycan array binding signal (z-score)” value (Man(b1-4)GlcNAc) was 1.19 and the “glycan array binding signal (z-score)” value (MurNAc(b1-4)GlcNAc) was 1.37. For the same binder, the “glycan array binding signal (z-score)” value (Neu5Ac(a2-3)Gal) was -0.883, the “glycan array binding signal (z-score)” value [12] was 0.795 and the “glycan array binding signal (z-score)” value [13] was -0.765. The “glycan array binding signal (z-score)” value [14] was -0.548, the “glycan array binding signal (z-score)” value [15] was 0.831 and the “glycan array binding signal (z-score)” value [16] was -1.11. The “glycan array binding signal (z-score)” value [17] was -0.634, the “glycan array binding signal (z-score)” value [18] was -0.841 and the “glycan array binding signal (z-score)” value [19] was -0.66. The “glycan array binding signal (z-score)” value [20] was 1.28, the “glycan array binding signal (z-score)” value [21] was -0.896 and the “glycan array binding signal (z-score)” value [22] was 2.28. For the same binder, the “glycan array binding signal (z-score)” value [23] was -0.647, the “glycan array binding signal (z-score)” value [24] was -0.91 and the “glycan array binding signal (z-score)” value [25] was -0.371.
